Experimental data as given in the supplement of paper PMC10849652.
The list shows a part of the results.

Sequences of proteins named here, by UniProt entry; tags and fusion partners are left off. A change or cut given only in a name is not applied to a line headed by its entry.
UniProt Q15043: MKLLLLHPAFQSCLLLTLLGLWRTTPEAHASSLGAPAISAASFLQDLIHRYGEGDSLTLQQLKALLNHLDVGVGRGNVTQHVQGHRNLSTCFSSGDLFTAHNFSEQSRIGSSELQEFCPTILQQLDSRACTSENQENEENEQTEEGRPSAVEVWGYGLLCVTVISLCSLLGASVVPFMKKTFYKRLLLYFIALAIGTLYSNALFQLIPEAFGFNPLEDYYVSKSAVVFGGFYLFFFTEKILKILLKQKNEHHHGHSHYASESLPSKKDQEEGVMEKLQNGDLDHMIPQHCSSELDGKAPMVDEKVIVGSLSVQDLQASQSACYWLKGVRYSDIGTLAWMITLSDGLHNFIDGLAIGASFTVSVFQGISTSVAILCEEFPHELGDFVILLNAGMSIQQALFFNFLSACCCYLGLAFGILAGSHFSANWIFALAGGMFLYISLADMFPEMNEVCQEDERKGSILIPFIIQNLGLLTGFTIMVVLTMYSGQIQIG
UniProt Q70HW3: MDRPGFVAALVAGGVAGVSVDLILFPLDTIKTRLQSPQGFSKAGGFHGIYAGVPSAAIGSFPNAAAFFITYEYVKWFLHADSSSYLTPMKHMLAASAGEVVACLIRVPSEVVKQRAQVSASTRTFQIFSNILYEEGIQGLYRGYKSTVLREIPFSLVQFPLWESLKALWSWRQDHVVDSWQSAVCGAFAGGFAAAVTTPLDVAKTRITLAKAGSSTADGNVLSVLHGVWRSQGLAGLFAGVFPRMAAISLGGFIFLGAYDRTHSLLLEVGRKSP
UniProt P14672: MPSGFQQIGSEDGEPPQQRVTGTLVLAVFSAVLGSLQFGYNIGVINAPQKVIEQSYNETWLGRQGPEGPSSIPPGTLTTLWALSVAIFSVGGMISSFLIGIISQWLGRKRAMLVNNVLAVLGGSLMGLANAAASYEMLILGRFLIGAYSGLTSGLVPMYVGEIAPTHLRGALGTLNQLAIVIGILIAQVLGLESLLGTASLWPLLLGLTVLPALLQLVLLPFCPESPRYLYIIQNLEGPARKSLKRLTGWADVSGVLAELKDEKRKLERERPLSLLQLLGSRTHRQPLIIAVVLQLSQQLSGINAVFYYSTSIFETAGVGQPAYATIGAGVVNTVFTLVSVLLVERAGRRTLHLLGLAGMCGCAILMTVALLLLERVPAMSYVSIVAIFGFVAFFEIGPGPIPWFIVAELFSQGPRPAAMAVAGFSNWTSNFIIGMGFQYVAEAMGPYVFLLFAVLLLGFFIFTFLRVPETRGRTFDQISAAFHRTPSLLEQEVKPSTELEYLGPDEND
UniProt P48029: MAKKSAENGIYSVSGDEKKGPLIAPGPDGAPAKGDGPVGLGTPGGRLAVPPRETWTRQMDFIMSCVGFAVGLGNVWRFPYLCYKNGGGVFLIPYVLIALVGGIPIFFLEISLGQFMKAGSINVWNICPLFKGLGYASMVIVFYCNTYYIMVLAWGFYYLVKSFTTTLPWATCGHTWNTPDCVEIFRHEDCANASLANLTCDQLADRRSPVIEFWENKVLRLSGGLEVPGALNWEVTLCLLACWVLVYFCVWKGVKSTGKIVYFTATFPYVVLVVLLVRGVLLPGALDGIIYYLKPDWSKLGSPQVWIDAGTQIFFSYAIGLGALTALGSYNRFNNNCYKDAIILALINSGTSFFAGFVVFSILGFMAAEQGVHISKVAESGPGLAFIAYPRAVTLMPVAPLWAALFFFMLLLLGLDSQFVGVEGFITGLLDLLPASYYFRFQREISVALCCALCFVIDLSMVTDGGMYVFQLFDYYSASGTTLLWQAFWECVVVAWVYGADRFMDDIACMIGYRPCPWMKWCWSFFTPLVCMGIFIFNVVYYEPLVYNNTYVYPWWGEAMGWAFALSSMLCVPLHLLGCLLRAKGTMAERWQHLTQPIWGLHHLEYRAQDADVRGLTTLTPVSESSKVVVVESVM
UniProt Q9UBX3: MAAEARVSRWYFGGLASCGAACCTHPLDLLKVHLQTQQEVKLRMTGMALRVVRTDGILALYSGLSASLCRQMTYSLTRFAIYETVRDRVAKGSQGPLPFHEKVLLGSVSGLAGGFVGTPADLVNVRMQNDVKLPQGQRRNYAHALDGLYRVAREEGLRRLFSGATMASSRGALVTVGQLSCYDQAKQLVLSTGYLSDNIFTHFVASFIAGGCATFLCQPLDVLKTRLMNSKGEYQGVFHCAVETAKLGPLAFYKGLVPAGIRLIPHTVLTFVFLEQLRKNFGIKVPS
UniProt O95258: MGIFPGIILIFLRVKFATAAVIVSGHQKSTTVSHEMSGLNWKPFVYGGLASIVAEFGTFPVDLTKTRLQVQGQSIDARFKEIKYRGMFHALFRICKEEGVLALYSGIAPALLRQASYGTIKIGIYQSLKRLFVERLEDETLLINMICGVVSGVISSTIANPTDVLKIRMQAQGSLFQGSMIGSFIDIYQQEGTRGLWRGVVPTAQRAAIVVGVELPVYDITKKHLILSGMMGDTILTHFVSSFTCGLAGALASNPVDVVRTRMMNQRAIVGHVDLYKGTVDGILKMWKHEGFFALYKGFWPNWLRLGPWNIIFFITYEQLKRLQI
UniProt Q9BSK2: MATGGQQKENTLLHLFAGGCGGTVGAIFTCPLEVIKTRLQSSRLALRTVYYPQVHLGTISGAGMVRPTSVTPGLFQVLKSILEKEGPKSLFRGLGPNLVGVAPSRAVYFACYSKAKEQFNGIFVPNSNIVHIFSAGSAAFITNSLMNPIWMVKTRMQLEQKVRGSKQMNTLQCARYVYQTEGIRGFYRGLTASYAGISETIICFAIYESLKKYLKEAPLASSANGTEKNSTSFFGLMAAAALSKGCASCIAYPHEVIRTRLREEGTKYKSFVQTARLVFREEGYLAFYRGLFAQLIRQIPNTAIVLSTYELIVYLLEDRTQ
UniProt Q96H78: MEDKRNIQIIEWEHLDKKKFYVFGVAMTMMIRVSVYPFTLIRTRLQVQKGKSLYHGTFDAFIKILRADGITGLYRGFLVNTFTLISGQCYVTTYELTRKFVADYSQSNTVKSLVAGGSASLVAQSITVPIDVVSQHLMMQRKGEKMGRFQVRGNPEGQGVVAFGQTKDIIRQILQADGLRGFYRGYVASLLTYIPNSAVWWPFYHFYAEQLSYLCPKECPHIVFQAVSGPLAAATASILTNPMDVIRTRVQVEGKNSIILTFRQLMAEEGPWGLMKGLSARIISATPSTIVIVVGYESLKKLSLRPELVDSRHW
UniProt Q969S0: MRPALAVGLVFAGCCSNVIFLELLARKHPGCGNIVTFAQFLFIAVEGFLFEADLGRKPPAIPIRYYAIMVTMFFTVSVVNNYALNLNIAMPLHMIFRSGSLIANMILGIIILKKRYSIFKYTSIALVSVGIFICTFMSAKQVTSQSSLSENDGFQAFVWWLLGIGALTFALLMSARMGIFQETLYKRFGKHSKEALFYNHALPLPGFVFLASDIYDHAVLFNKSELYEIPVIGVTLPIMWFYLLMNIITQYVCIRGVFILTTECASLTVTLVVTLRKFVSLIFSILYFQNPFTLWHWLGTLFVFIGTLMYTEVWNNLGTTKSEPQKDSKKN
UniProt Q6NXT4: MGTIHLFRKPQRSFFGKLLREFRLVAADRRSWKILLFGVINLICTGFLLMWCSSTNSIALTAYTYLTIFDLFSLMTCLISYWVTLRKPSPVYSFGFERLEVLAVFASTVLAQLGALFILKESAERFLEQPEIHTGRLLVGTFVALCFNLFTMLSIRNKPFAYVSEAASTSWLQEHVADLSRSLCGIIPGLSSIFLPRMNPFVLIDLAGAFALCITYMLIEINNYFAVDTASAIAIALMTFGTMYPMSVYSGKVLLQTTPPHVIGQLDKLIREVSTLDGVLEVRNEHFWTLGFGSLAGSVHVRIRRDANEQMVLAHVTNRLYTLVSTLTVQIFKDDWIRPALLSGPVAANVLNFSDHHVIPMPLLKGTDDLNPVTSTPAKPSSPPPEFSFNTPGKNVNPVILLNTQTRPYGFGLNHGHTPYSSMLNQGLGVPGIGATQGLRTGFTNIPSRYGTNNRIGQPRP
UniProt Q8N1S5: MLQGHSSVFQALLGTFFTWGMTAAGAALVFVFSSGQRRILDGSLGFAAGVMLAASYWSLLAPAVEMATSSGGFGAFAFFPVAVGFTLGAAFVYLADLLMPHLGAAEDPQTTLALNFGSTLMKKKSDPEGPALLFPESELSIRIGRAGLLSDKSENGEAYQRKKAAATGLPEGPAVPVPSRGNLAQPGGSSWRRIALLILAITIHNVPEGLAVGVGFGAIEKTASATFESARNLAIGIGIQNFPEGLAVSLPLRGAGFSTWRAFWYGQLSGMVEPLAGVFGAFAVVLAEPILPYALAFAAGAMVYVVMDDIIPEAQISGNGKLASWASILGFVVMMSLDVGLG
UniProt Q15599: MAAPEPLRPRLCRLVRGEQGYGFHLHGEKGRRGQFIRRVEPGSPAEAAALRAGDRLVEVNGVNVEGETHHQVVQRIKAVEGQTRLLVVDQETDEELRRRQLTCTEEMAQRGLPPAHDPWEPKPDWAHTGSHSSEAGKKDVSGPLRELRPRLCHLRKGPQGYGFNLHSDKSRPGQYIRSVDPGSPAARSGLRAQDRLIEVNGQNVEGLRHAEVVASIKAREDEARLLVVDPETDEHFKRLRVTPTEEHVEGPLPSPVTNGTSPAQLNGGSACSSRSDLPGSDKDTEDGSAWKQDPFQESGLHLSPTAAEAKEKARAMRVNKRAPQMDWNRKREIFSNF
UniProt P11169: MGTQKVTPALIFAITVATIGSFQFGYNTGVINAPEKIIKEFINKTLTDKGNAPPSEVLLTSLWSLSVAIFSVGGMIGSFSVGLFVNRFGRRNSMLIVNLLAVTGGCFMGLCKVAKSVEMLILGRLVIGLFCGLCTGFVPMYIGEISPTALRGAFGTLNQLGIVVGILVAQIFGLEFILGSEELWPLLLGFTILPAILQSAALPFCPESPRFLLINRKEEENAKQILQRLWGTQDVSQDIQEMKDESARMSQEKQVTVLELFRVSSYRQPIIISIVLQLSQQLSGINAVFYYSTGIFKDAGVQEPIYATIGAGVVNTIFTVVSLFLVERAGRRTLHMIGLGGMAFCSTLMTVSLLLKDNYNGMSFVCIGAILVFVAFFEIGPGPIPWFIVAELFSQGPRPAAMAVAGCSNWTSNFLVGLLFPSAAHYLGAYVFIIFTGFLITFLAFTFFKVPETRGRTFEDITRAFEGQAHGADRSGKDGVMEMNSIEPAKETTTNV
UniProt P12235: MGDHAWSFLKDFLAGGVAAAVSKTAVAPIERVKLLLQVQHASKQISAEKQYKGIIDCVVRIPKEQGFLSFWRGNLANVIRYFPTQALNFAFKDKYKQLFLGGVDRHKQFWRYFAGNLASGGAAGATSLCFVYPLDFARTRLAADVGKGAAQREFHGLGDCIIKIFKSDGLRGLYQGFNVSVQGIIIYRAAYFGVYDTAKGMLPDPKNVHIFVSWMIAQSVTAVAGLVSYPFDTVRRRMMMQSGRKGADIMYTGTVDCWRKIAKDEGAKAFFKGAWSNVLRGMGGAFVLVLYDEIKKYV
UniProt Q9BV35: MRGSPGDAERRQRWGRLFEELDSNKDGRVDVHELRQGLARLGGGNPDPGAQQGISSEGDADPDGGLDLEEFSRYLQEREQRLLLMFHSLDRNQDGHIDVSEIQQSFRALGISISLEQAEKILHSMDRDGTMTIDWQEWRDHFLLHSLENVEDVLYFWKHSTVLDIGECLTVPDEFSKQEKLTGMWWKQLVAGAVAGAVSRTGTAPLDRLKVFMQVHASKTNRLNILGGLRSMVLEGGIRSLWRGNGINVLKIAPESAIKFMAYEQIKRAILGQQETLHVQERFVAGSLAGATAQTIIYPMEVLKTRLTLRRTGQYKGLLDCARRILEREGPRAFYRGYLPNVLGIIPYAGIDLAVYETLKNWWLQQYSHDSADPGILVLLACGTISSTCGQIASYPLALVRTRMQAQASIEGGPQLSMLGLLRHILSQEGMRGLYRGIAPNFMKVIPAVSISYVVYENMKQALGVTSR
UniProt Q8WWI5: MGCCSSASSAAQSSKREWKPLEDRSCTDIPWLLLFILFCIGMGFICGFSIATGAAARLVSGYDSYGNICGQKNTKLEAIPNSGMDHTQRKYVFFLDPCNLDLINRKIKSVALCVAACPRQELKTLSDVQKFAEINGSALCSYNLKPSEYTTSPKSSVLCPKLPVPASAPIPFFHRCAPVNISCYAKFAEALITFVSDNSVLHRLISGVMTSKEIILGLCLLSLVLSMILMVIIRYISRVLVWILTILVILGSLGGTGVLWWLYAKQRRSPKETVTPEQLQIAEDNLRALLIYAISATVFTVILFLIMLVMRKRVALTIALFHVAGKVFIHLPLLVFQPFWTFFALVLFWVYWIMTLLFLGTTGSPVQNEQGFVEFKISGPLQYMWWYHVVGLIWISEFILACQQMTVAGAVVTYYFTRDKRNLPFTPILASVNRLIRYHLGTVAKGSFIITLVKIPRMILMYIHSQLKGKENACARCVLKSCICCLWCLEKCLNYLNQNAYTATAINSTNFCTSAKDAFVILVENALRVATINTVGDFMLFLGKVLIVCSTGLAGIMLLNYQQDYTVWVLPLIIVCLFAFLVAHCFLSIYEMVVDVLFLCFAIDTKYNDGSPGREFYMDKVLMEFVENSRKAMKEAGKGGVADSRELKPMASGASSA

Key:
Assay in all cases: log2 fold change, soluble protein after heating vs DMSO (PISA); higher = thermal stabilisation; K562 lysate, 10 uM; active = over 0.2 and 3.5 SD of the protein, either way, in both replicates (recomputed)
[1] = compound: C1=CC=C(C=C1)[C@H](COC2=CC3=C(C=C2)NC(=O)N3)NC(=O)C4=CC=CN(C4=O)CC5=CC(=C(C=C5)F)F
How it was run: (§1)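 Values give the log-two fold change in thermal stability against solvent controls, from duplicates. Crude K562 extract at 1 mg/mL protein, made by dounce homogenisation in PBS pH 7.4 with 1 mM MgCl2, was treated with 10 μM compound for 30 min. After 3 min heating across 48°C-58°C, aliquots were pooled, adjusted to 0.5% NP-40 at 4°C and centrifuged at 21,000xg for 90 min. The supernatant was measured by TMTpro 16plex LC-MS/MS with channel sums equalised.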

[2] = compound: CC1=C(SC2=C1C(=N[C@H](C3=NN=C(N32)C)CC(=O)N)C4=CC=C(C=C4)Cl)C
How it was run: as §1

[3] = compound: CC1=C2C(=CC=C1)N=C(N(C2=O)C3=CC=CC=C3C)CN4C=NC5=C(N=CN=C54)N
How it was run: as §1

[4] = compound: Cc1sc2c(c1C)C(c1ccc(Cl)cc1)=N[C@@H](CC(=O)OC(C)(C)C)c1nnc(C)n1-2
How it was run: as §1

[5] = compound: c1ccc([C@@H]2C[C@H]2NC2CCNCC2)cc1
How it was run: as §1

Measured: log2 fold change

SLC39A14 (UniProt Q15043)
inactive: [1] 0.037 | [2] -0.054 | [3] 0.005 | [4] -0.02 | [5] -0.002

SLC39A10 (UniProt Q9ULF5)
inactive: [1] 0.034 | [2] -0.014 | [3] 0.031 | [4] 0.018 | [5] -0.028

SLC27A4 (UniProt Q6P1M0)
inactive: [1] 0.106 | [2] -0.006 | [3] 0.054 | [4] -0.002 | [5] 0.121

SLC25A26 (UniProt Q70HW3)
inactive: [1] 0.017 | [2] -0.074 | [3] 0.029 | [4] -0.078 | [5] -0.081

SLC2A4 (UniProt P14672)
inactive: [1] -0.021 | [2] -0.003 | [3] 0.183 | [4] 0.004 | [5] -0.029

SLC36A1 (UniProt Q7Z2H8)
inactive: [1] 0.149 | [2] 0.172 | [3] 0.166 | [4] -0.054 | [5] -0.108

SLC38A7 (UniProt Q9NVC3)
inactive: [1] 0.022 | [2] -0.043 | [3] -0.006 | [4] 0.111 | [5] 0.027

SMAD4 (UniProt Q13485)
inactive: [1] 0.05 | [2] -0.019 | [3] 0.077 | [4] -0.008 | [5] 0.006

SLC41A3 isoform 9 (UniProt Q96GZ6)
inactive: [1] 0.074 | [2] 0.281 | [3] 0.094 | [5] -0.257

SLC25A12 (UniProt O75746)
inactive: [1] 0.038 | [2] -0.011 | [3] -0.04 | [4] 0.024 | [5] -0.015

SLC35A1 (UniProt P78382)
inactive: [1] -0.053 | [2] -0.022 | [3] 0.045 | [5] -0.109

SLC6A8 (UniProt P48029)
inactive: [1] 0.002 | [2] 0.03 | [3] -0.028 | [4] -0.001 | [5] -0.147

SMAP (UniProt O00193)
inactive: [1] 0.036 | [2] -0.016 | [3] 0.009 | [4] 0.085 | [5] 0.033

SLC39A7 (UniProt Q92504)
inactive: [1] -0.003 | [2] -0.038 | [3] -0.001 | [5] -0.019

SLC25A10 isoform 2 (UniProt Q9UBX3)
inactive: [1] 0.009 | [2] -0.008 | [3] -0.022 | [4] 0.019 | [5] -0.015

SLC25A14 isoform 3 (UniProt O95258)
inactive: [1] 0.002 | [2] -0.055 | [3] 0.01 | [4] -0.01 | [5] -0.118

SLC7A6 (UniProt Q92536)
inactive: [1] 0.081 | [2] -0.008 | [3] 0.069 | [4] -0.058 | [5] -0.171

SLC25A13 isoform 2 (UniProt Q9UJS0)
inactive: [1] 0.013 | [2] 0.001 | [3] -0.003 | [4] 0.019 | [5] 0.035

SLC52A2 (UniProt Q9HAB3)
inactive: [1] -0.019 | [2] -0.036 | [3] -0.016 | [4] -0.048 | [5] 0.021

SLC22A23 (UniProt A1A5C7)
inactive: [1] 0.063 | [2] 0.032 | [3] 0.025 | [4] -0.083 | [5] -0.057

SLC25A11 (UniProt Q02978)
inactive: [1] 0.01 | [2] 0.006 | [3] 0 | [4] -0.006 | [5] -0.061

SLC25A33 (UniProt Q9BSK2)
inactive: [1] -0.022 | [2] 0 | [3] 0.007 | [4] 0.015 | [5] -0.02

SLC25A46 (UniProt Q96AG3)
inactive: [1] 0.001 | [2] -0.01 | [3] 0.019 | [4] -0.022 | [5] 0.004

SLC25A44 (UniProt Q96H78)
inactive: [1] 0.042 | [2] -0.044 | [3] -0.014 | [4] -0.004 | [5] -0.17

SLC35B4 (UniProt Q969S0)
inactive: [1] -0.097 | [2] -0.044 | [3] -0.086 | [5] -0.007

SLC7A6OS (UniProt Q96CW6)
inactive: [1] 0.037 | [2] -0.026 | [3] -0.02 | [4] 0.025 | [5] -0.261

SLC30A6 isoform 2 (UniProt Q6NXT4)
inactive: [1] 0.033 | [2] -0.046 | [3] 0.116 | [5] -0.059

SLC39A11 (UniProt Q8N1S5)
inactive: [1] 0.022 | [2] -0.041 | [3] 0.063 | [4] 0.186 | [5] 0.036

SLFN14 (UniProt P0C7P3)
inactive: [1] 0.11 | [2] -0.111 | [3] 0.067 | [5] -0.049

SLC25A32 (UniProt Q9H2D1)
inactive: [1] 0.032 | [2] 0.014 | [3] 0.016 | [4] -0.053 | [5] -0.06

SLC44A2 (UniProt Q8IWA5)
inactive: [1] 0.136 | [2] -0.076 | [3] -0.037 | [4] 0.094 | [5] 0.124

Quoted at random: 2 records from the list.
SLC30A6 isoform 2 (UniProt Q6NXT4)
inactive: [1] 0.033 | [2] -0.046 | [3] 0.116 | [5] -0.059

SLC44A2 (UniProt Q8IWA5)
inactive: [1] 0.136 | [2] -0.076 | [3] -0.037 | [4] 0.094 | [5] 0.124

Remaining list, next part.

SLC5A6 (UniProt Q9Y289)
inactive: [1] -0.036 | [2] -0.011 | [3] -0.017 | [4] -0.06 | [5] -0.04

SLC29A2 (UniProt Q14542)
inactive: [1] 0.106 | [2] 0.001 | [3] 0.044 | [4] -0.116 | [5] -0.233

SLC9A3R2 (UniProt Q15599)
inactive: [1] 0.015 | [2] 0.013 | [3] 0.066 | [4] -0.013 | [5] -0.092

SLC2A3 (UniProt P11169)
inactive: [1] -0.025 | [2] 0.024 | [3] -0.004 | [4] 0.022 | [5] 0.001

SLC35A2 isoform 4 (UniProt P78381)
inactive: [1] -0.023 | [2] -0.013 | [3] -0.009 | [4] -0.049 | [5] -0.037

SMAP1 isoform 2 (UniProt Q8IYB5)
inactive: [1] 0.019 | [2] 0.002 | [3] 0.097 | [4] -0.015 | [5] -0.066

SLC25A4 (UniProt P12235)
inactive: [1] -0.002 | [2] 0.031 | [3] -0.033 | [4] 0.048 | [5] 0.028

SLK isoform 2 (UniProt Q9H2G2)
inactive: [1] 0.009 | [2] -0.003 | [3] -0.034 | [4] -0.002 | [5] 0

SLC25A42 (UniProt Q86VD7)
inactive: [1] 0.141 | [2] 0.075 | [3] -0.078 | [4] 0.087 | [5] -0.003

SLC9A6 isoform 2 (UniProt Q92581)
inactive: [1] -0.074 | [2] -0.085 | [3] -0.03 | [4] 0.006 | [5] 0.062

Quoted from the entries so far (two entries):
SLC41A3 isoform 9 (UniProt Q96GZ6)
inactive: [1] 0.074 | [2] 0.281 | [3] 0.094 | [5] -0.257

SLC25A12 (UniProt O75746)
inactive: [1] 0.038 | [2] -0.011 | [3] -0.04 | [4] 0.024 | [5] -0.015

Further records follow.

SLC25A22 (UniProt Q9H936)
inactive: [1] -0.009 | [2] 0.031 | [3] -0.025 | [4] 0.04 | [5] -0.037

SLC6A6 (UniProt P31641)
inactive: [1] 0.028 | [2] -0.029 | [3] 0.026 | [4] -0.079 | [5] 0.027

SLC35E1 (UniProt Q96K37)
inactive: [1] -0.006 | [2] -0.157 | [3] -0.015 | [4] -0.054 | [5] 0.027

SLC25A17 (UniProt O43808)
inactive: [1] -0.014 | [2] 0.007 | [3] -0.024 | [4] -0.096 | [5] -0.163

SLC23A2 (UniProt Q9UGH3)
inactive: [4] -0.019 | [5] 0.147

SLC35C2 isoform 3 (UniProt Q9NQQ7)
inactive: [1] -0.125 | [2] 0.056 | [4] -0.037 | [5] 0.052

SLC25A23 isoform 3 (UniProt Q9BV35)
inactive: [4] -0.129 | [5] 0.132

SLC66A3 (UniProt Q8N755)
inactive: [3] 0.053 | [4] -0.263

SLC25A35 (UniProt Q3KQZ1)
inactive: [5] 0.047

SLC44A1 (UniProt Q8WWI5)
inactive: [4] 0.204 | [5] -0.216
